The values that follow come from the supplement of paper PMC10849652.

Chains of the proteins cited; added tags and fusions are not shown. Lines headed by an entry give the natural chain unless they say otherwise; changes in a name come on top.
UniProt Q8TBP6: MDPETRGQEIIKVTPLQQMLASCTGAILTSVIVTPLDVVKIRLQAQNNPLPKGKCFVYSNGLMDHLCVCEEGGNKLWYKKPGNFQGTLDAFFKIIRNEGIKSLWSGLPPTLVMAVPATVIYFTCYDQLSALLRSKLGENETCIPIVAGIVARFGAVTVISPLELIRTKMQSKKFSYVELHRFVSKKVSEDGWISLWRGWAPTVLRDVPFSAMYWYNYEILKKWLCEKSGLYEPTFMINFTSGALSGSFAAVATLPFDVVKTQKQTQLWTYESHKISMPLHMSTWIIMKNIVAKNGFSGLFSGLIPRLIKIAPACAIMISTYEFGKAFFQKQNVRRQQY
UniProt Q92504: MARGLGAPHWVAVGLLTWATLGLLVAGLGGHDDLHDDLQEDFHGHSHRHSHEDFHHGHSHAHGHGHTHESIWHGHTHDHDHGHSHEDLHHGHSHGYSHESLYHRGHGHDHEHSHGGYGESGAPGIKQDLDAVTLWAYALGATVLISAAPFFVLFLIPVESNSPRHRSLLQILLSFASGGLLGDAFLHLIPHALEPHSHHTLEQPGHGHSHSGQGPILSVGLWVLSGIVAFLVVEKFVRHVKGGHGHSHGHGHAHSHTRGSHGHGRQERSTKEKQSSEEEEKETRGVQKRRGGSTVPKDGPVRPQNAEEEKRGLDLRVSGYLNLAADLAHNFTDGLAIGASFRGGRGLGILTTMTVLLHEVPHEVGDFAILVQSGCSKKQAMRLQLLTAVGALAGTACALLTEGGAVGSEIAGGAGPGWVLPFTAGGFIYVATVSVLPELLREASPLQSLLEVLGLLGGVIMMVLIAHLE
UniProt Q8TB61: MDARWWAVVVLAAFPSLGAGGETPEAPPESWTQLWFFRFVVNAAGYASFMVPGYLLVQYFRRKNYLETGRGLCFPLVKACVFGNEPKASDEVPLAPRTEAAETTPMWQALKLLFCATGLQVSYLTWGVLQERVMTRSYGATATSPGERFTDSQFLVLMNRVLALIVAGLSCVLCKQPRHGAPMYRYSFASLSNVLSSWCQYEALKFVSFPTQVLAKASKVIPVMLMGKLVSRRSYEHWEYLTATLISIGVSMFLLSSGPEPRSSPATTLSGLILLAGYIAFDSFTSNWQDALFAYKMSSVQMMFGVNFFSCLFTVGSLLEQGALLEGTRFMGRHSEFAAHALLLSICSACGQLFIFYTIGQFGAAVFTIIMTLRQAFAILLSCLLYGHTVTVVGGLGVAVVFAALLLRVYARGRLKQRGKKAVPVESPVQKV
UniProt Q96K37: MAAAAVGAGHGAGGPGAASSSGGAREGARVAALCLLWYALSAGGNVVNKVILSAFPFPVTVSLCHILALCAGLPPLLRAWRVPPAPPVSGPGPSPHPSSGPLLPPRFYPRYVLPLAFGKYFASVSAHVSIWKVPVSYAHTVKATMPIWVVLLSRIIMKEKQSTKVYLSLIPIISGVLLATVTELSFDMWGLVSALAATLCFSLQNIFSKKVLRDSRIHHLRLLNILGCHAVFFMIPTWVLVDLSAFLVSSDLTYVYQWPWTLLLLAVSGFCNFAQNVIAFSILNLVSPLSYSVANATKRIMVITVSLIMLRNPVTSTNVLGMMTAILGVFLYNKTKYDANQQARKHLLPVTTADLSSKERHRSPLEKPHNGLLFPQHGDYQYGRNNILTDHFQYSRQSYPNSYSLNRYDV
UniProt Q9Y6M7: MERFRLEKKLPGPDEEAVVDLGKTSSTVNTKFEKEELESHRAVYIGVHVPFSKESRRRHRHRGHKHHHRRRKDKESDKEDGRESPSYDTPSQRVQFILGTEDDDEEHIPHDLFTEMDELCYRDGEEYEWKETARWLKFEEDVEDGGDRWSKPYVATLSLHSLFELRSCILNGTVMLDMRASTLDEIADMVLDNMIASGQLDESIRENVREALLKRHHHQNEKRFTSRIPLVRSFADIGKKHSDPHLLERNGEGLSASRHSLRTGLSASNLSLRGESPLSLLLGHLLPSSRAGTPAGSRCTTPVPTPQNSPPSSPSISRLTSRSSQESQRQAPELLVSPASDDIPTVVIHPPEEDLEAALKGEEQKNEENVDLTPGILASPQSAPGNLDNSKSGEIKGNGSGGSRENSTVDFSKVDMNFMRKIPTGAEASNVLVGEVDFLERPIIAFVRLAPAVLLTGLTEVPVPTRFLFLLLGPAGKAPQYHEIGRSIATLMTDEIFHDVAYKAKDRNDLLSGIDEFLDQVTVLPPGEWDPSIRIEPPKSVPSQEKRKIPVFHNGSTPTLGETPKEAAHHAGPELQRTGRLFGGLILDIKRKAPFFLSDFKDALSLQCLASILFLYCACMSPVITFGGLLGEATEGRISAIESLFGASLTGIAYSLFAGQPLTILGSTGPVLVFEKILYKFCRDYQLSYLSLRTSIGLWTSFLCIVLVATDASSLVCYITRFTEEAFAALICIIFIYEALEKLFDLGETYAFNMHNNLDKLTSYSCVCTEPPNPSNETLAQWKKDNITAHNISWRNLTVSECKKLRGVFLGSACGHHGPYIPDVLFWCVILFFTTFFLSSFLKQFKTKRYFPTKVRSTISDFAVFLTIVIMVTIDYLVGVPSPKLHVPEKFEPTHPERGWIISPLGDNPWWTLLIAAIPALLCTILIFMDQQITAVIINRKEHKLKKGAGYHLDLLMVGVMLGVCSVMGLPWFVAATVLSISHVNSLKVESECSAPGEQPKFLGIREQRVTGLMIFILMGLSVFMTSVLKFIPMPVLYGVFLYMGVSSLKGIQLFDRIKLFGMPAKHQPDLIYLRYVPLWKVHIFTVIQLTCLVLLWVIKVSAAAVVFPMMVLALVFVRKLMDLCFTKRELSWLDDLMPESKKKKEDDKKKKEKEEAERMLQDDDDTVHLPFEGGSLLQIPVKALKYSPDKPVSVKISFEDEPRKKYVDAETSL
UniProt P78381: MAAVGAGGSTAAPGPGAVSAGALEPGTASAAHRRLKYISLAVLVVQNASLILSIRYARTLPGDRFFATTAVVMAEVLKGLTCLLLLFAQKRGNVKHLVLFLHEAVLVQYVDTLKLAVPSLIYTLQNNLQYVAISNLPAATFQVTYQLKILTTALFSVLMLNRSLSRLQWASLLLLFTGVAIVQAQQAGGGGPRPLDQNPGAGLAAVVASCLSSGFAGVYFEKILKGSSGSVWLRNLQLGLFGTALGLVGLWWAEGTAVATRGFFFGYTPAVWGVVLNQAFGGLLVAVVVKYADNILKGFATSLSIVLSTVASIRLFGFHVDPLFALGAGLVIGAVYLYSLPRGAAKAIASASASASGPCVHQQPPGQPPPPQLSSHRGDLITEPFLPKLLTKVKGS
UniProt Q9Y2D2: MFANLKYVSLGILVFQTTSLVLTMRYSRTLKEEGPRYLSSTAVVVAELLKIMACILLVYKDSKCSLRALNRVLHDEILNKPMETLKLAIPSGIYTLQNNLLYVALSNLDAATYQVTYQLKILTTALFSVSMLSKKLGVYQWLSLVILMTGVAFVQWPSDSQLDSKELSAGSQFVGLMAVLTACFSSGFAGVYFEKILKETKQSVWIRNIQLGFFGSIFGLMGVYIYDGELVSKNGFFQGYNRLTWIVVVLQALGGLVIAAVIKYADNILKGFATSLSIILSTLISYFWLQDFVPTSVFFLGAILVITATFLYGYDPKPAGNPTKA
UniProt Q99808: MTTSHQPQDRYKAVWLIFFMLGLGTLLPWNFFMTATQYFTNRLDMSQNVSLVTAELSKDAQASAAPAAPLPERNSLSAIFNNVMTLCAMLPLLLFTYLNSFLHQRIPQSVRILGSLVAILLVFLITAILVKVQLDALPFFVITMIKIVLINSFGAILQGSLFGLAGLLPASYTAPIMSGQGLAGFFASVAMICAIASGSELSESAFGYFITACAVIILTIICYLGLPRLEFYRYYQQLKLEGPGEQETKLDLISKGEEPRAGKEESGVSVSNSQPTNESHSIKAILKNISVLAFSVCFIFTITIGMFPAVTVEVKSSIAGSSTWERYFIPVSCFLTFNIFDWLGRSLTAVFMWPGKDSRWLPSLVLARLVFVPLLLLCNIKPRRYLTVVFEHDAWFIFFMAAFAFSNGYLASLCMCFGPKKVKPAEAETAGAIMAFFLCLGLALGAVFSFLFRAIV
UniProt Q9BWU0: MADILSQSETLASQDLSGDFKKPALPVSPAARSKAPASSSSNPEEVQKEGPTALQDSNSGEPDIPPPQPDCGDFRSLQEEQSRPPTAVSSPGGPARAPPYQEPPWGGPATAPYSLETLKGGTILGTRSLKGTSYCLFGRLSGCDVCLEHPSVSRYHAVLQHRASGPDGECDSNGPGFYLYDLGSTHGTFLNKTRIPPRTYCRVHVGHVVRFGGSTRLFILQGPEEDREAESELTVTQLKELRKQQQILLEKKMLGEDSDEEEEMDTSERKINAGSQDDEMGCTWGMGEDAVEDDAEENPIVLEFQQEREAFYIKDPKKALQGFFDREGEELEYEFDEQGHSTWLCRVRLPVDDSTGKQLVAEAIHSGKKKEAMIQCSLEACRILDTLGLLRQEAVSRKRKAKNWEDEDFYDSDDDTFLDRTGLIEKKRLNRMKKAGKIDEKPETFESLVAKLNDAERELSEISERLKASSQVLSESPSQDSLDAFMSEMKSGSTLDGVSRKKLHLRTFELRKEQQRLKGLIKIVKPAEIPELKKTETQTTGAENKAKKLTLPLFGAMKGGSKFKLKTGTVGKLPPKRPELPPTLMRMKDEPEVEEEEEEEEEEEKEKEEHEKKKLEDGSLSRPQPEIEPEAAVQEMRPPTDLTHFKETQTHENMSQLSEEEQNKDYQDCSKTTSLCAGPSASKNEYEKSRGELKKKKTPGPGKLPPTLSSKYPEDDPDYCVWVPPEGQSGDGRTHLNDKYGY
UniProt Q9UJS0: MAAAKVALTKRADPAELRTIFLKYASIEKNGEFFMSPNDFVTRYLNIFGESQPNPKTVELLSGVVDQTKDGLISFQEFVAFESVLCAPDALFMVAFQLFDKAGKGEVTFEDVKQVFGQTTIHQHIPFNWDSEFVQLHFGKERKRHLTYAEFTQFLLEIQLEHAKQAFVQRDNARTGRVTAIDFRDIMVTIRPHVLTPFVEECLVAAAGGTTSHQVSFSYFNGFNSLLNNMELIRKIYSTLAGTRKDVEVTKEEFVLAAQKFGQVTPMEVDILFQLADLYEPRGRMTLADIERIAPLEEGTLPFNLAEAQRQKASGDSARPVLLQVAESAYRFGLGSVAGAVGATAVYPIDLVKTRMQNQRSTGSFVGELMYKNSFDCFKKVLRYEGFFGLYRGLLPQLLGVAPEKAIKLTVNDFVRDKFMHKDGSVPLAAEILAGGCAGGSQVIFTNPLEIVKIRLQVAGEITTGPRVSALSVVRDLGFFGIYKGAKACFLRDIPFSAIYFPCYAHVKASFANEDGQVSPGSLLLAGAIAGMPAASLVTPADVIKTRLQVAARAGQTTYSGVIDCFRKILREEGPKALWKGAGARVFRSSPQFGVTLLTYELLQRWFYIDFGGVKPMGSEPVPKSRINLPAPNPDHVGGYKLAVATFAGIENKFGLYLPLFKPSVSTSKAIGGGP
UniProt Q9BV35: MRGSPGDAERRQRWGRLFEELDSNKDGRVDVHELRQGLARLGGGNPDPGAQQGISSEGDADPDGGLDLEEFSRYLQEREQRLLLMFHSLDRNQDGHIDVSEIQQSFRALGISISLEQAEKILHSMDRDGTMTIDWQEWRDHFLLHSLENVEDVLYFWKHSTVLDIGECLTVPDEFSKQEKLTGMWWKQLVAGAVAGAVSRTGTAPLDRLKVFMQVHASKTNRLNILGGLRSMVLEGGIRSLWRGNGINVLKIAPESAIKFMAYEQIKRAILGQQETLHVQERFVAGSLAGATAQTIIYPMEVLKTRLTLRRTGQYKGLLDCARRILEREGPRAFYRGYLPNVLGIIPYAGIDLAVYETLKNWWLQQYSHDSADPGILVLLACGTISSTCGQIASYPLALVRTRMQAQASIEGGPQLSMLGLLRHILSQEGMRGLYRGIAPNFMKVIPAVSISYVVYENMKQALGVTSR
UniProt Q96EP9: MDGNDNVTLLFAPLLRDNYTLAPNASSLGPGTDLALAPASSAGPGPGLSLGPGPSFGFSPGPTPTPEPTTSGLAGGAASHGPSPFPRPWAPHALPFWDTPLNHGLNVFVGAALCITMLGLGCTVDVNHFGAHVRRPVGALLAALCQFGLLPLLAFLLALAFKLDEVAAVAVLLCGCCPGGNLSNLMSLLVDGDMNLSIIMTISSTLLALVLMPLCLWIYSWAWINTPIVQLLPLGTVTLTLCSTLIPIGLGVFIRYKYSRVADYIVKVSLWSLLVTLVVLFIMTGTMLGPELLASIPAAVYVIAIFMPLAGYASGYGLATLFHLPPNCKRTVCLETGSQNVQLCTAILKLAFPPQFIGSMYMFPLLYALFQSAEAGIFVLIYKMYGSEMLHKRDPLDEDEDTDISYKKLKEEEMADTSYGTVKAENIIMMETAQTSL

Compound in this assay: c1cn2cc(-c3ccc4cn[nH]c4c3)nc(Nc3ccc(N4CCOCC4)cc3)c2n1 [entospletinib]
The assay is described as follows: log2 fold change, soluble protein after heating vs DMSO (PISA); higher = thermal stabilisation; K562 cells, 10 uM, 30 min; active = over 0.2 and 3.5 SD of the protein, either way, in both replicates (recomputed). An outline of the steps: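 Aliquots of K562 cells (2×10^6 cells/mL) treated with 10 μM compound for 30 min were heated for 3 min over 48°C-58°C. After pooling and extraction in PBS with 0.5% NP-40 at 4°C, soluble protein from a 21,000xg, 90 min spin was quantified by TMTpro 16plex LC-MS/MS with channel sums equalised. Thermal stability is expressed against control samples, from duplicates, as a log2 fold change.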

The list shows a part of the results.

Consider SLC25A40 (UniProt Q8TBP6), for which the log2 fold change was inactive: 0.012.
On to SLC35F2 (UniProt Q8IXU6), for which the log2 fold change is inactive: 0.025.
In the case of SLC39A7 (UniProt Q92504), the log2 fold change is inactive: 0.005.
With SLC22A23 (UniProt A1A5C7) the figure was inactive: -0.144.
With SLC25A3 isoform 2 (UniProt Q00325) the figure was inactive: -0.003; with SLC26A6 (UniProt Q9BXS9), inactive: 0.045.
With SLC3A2 (UniProt F5GZS6) the figure was inactive: -0.051; with SLC35B2 (UniProt Q8TB61), inactive: 0.059; with SLC37A4 isoform 2 (UniProt O43826), inactive: -0.039.
As to SLC16A1 (UniProt P53985), the log2 fold change was inactive: 0.041.
With SLC35E1 (UniProt Q96K37) the figure was inactive: 0.039.
As to SLC35C1 (UniProt Q96A29), the log2 fold change was inactive: -0.068.
In the case of SLC4A7 isoform 7 (UniProt Q9Y6M7), the log2 fold change is inactive: 0.038.
With SLC30A1 (UniProt Q9Y6M5) the figure was inactive: 0.019; with SLC35A2 isoform 4 (UniProt P78381), inactive: -0.011.
As to SLC43A3 isoform 2 (UniProt Q8NBI5), the log2 fold change is inactive: 0.106.
Regarding SLC7A1 (UniProt P30825), the log2 fold change was inactive: -0.045.
With SLC5A6 (UniProt Q9Y289) the figure was inactive: -0.048; with SLC2A1 (UniProt P11166), inactive: -0.02.
With SLC22A18 (UniProt Q96BI1) the figure was inactive: 0.066; with SLC6A8 (UniProt P48029), inactive: -0.006.
With SLC35A3 isoform 2 (UniProt Q9Y2D2) the figure was inactive: 0.026; with SLC25A26 (UniProt Q70HW3), inactive: -0.068.
SLC29A1 isoform 2 (UniProt Q99808): the log2 fold change was inactive: -0.001.
Turning to SLC4A1AP (UniProt Q9BWU0), the log2 fold change was inactive: -0.036.
Take SLC25A12 (UniProt O75746): the log2 fold change was inactive: -0.03.
For SLC25A13 isoform 2 (UniProt Q9UJS0), the log2 fold change was inactive: 0.029.
As for SLC40A1 (UniProt Q9NP59), the log2 fold change is inactive: 0.091.
Take SLC12A4 (UniProt Q9UP95): the log2 fold change is inactive: -0.006.
With SLC25A23 isoform 3 (UniProt Q9BV35) the figure was inactive: -0.042.
Regarding SLC25A37 (UniProt Q9NYZ2), the log2 fold change is inactive: 0.053.
With SLC5A3 (UniProt P53794) the figure was inactive: 0.031.
With SLC10A4 (UniProt Q96EP9) the figure was inactive: -0.048.
